The series is described as follows: Odor description (olfactory evaluation of the compound / isomeric mixture). The following applies: odor of the isomeric mixture unless otherwise indicated.

Our source for the Odor description values is patent publication US12018229B2, “Organic compounds” (Givaudan SA, priority 2018, dated 2024).

Regarding `CC1=CCOC(CCCc2ccccc2)C1` (stereo not drawn) [Example 1, 4-Methyl-2-(3-phenylpropyl)-3,6-dihydro-2H-pyran], the Odor description result is on record as “green, earthy, stemone, bell pepper, petitgrain, sligthly rosy”. For the same compound, the Odor description result (listed as 4-methyl-2-(3-phenylpropyl)-3,6-dihydro-2H-pyran) was “very powerful, green, earthy, stemone, bell pepper, petitgrain, sligthly rosy”.

Take `CC1=CC(C)OC(CCCc2ccccc2)C1` (stereo not drawn) [Example 2, 4,6-Dimethyl-2-(3-phenylpropyl)-3,6-dihydro-2H-pyran]: the Odor description result was “green, pyrazine like, rooty, petitgrain, chili pepper”. Regarding `CC1=CCOC(Cc2ccccc2)C1` (stereo not drawn) [Example 3, 2-Benzyl-4-methyl-3,6-dihydro-2H-pyran], the Odor description entry is given as “green, rosy, metallic, rose oxyde, gun powder, sharp, intense, fatty, floral”. In the case of `CC1=CCOC(CCCCc2ccccc2)C1` (stereo not drawn) [Example 4, 4-Methyl-2-(4-phenylbutyl)-3,6-dihydro-2H-pyran, reference compound], the Odor description result is recorded as “weak, green, crunchy, bell pepper, floral”. For the compound `CC1=CCOC(CCc2ccccc2)C1` (stereo not drawn) [Example 5, 4-Methyl-2-phenethyl-3,6-dihydro-2H-pyran, reference compound], the Odor description result was “green, rosy, metallic, geranium leaf”.
